From US20090035215A1 (priority 2006, published 2009)

Assay: general procedure: Fmoc solid-phase peptide synthesis; Rink amide resin; DCC, HOBt; HBTU/HOBT/diisopropyl ethyl amine for silane acid coupling
Conditions: whole synthesis

| Substance | isolated yield (scale 0.05 mmol) [%] | isolated yield (scale 69 μM) [%] |
| --- | --- | --- |
| 4-[3-(Ethoxy-diisopropyl-silanyl)-propylcarbamoyl]-butyric-Val-βAla-Phe-Gly-NH2 | 12 | – |
| (Di-tert-butyl-hydroxy-silanyl)-acetyl-Val-βAla-Phe-Gly-NH2 | – | 33 |
